# In paper doi:10.1101/2020.07.03.182295 (bioRxiv, 2020):
# Amino acid sequences for entries named in this document (tags omitted).
# UniProt P15924: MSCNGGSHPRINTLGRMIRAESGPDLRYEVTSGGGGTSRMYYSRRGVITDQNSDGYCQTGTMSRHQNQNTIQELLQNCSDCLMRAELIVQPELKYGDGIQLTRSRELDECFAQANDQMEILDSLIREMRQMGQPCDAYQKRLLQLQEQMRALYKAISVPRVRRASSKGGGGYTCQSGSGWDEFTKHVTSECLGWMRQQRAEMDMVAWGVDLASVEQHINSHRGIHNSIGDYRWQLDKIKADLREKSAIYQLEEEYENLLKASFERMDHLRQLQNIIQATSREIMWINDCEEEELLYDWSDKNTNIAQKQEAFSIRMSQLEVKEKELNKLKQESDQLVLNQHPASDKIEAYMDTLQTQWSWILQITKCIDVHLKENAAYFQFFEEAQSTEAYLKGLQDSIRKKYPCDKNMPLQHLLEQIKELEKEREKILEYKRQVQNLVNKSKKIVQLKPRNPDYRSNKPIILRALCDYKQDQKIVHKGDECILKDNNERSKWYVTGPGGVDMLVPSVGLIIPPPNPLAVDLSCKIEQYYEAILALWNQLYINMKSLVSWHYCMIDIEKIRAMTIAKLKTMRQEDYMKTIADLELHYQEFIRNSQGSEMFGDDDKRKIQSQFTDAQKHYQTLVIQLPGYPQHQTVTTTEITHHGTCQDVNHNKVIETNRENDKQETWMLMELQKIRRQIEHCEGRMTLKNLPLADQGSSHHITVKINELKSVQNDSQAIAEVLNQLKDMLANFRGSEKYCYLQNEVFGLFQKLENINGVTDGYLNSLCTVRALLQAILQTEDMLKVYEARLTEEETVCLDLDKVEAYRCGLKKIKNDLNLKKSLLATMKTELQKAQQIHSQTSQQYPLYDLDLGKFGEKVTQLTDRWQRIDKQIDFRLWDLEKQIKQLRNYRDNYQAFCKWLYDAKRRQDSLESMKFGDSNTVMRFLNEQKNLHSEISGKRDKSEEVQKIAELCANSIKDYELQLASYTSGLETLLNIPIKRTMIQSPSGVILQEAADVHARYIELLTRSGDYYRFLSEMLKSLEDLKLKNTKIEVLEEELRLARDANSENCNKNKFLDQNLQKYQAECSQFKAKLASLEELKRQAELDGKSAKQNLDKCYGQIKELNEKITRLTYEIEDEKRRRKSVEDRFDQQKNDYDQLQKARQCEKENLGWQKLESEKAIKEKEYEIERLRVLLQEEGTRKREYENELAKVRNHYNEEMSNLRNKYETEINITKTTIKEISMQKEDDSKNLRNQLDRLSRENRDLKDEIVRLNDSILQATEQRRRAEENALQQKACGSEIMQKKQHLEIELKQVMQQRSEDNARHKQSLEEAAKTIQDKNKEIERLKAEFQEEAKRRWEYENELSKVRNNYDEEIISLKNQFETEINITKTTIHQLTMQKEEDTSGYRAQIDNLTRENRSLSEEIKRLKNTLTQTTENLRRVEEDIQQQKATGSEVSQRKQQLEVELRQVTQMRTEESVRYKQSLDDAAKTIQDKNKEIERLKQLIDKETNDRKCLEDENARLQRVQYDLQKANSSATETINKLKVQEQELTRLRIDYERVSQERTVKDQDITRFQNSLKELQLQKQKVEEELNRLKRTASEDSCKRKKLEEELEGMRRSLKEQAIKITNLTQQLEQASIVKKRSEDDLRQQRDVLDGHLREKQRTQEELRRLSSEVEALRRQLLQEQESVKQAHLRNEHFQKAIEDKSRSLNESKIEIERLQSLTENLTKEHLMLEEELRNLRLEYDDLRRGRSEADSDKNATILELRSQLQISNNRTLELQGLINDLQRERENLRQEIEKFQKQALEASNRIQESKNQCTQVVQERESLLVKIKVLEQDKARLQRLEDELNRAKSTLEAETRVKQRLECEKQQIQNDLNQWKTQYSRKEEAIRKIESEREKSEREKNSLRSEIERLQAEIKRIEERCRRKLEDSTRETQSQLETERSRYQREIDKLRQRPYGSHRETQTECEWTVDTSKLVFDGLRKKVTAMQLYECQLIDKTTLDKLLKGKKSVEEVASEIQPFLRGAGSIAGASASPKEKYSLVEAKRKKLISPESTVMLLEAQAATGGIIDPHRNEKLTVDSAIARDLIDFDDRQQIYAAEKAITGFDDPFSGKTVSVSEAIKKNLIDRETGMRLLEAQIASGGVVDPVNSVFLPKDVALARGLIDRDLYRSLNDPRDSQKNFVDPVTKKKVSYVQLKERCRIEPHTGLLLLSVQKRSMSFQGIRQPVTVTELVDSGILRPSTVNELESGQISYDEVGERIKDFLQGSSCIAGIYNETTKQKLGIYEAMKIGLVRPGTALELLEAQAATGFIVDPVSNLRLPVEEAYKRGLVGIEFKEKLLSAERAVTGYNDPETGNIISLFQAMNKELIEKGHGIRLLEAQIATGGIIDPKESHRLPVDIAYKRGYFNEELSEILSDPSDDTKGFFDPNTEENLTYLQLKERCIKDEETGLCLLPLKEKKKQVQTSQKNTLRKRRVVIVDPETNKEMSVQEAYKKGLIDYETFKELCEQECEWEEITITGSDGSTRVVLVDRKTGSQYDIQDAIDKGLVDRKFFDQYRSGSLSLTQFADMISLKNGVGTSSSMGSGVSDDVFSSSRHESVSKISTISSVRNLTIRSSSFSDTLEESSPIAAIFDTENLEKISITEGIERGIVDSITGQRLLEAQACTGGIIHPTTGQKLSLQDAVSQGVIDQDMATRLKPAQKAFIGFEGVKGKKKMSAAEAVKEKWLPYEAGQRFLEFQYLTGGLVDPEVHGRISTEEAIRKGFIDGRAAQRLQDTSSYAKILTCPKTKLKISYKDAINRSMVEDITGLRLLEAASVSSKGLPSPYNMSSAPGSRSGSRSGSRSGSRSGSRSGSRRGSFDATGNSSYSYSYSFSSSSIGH
# No constants are given. Whether binding was seen depends on the method and setting. Binding seen in cells or lysates may run through a third protein. Here binding means that the protein was enriched with, or labelled near, the bait; the list need not be complete. Where a sequence is shown, tags or fusion partners need not be part of it.
# T1: FLAG-tagged R54C αA-crystallin expressed in SRA 01/04 cells (human) (UniProt P02489)
# T1 sequence: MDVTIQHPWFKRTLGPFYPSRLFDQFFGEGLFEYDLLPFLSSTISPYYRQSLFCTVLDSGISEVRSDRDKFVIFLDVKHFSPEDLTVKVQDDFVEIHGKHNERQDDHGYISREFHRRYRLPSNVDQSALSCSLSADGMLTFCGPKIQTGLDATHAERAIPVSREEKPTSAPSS
# Biological target: T1, FLAG-tagged R54C αA-crystallin expressed in SRA 01/04 cells (human)
# Test: affinity purification with mass spectrometry
row,binding,Molecule
1,binds,desmoglein (human (endogenous in SRA 01/04))
2,binds,desmoplakin (from UniProt P15924 1-2871)
3,binds,"plakoglobin (protein, UniProt P14923 1-745) MEVMNLMEQPIKVTEWQQTYTYDSGIHSGANTCVPSVSSKGIMEEDEACGRQYTLKKTTTYTQGVPPSQGDLEYQMSTTARAKRVREAMCPGVSGEDSSLLLATQVEGQATNLQRLAEPSQLLKSAIVHLINYQDDAELATRALPELTKLLNDEDPVVVTKAAMIVNQLSKKEASRRALMGSPQLVAAVVRTMQNTSDLDTARCTTSILHNLSHHREGLLAIFKSGGIPALVRMLSSPVESVLFYAITTLHNLLLYQEGAKMAVRLADGLQKMVPLLNKNNPKFLAITTDCLQLLAYGNQESKLIILANGGPQALVQIMRNYSYEKLLWTTSRVLKVLSVCPSNKPAIVEAGGMQALGKHLTSNSPRLVQNCLWTLRNLSDVATKQEGLESVLKILVNQLSVDDVNVLTCATGTLSNLTCNNSKNKTLVTQNSGVEALIHAILRAGDKDDITEPAVCALRHLTSRHPEAEMAQNSVRLNYGIPAIVKLLNQPNQWPLVKATIGLIRNLALCPANHAPLQEAAVIPRLVQLLVKAHQDAQRHVAAGTQQPYTDGVRMEEIVEGCTGALHILARDPMNRMEIFRLNTIPLFVQLLYSSVENIQRVAAGVLCELAQDKEAADAIDAEGASAPLMELLHSRNEGTATYAAAVLFRISEDKNPDYRKRVSVELTNSLFKHDPAAWEAAQSMIPINEPYGDDMDATYRPMYSSDVPLDPLEMHMDMDGDYPIDTYSDGLRPPYPTADHMLA"
